According to PubChem BioAssay AID2551 (National Center for Advancing Translational Sciences (NCATS), 2010):
Several values for one entry are separate records, joined by “and”; a condition that tells them apart may be missing. Equal entries are not always repeated. About 17,000 (5.5%) of roughly 310,000 compounds were called active. Inconclusive results, whose numbers are uncertain, are shown with a selection of clear calls. Calls come from the whole dose curve; as a rule, active = well fitted inhibition curve with a large enough effect; inconclusive = small, poorly fitted or top-dose-only effect, or effect the other way; inactive = no such curve, though single readings can be large or run the other way. Where the call is inconclusive, the potency comes from a doubtful curve fit.

Protein sequences, listed by entry. Tags and fused reporters are not part of them. Lines headed by an entry give the natural chain unless they say otherwise; changes in a name come on top.
UniProt P51450: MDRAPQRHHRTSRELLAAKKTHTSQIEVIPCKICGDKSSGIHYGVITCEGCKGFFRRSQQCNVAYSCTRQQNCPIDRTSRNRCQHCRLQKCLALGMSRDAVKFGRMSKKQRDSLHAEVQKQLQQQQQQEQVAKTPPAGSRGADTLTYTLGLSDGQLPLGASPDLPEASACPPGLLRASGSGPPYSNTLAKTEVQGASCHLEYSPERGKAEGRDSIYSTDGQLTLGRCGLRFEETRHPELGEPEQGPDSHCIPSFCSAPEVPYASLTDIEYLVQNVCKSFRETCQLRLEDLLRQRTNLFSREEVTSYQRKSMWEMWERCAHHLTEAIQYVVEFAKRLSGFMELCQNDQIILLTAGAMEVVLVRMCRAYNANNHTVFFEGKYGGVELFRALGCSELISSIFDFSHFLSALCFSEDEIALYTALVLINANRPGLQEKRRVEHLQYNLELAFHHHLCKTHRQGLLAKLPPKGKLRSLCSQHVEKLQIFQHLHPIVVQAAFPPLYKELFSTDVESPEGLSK

target: Nuclear receptor ROR-gamma (Mus musculus) (UniProt P51450); experiment: qHTS for inhibitors of ROR gamma transcriptional activity; details: Drosophila S2 Gal4-RORgamma UAS-luciferase reporter, 20 h; activity change, negative = inhibition: at 53.6 µM (top of the series); note: nearly all actives have a fitted effect of over 60% in size
How it was run: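 Luminescence from a UAS-regulated Photinus luciferase reporter in stably transfected Drosophila Schneider cells is measured; decreased signal marks ROR gamma inhibition. Fusion expression is induced by 700 uM copper sulfate for 20 hr.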
% is set by controls: 0 for no effect and ±100 for the full control effect; potency is the fitted concentration of half-maximal effect.

SMILES	Potency	activity change, negative = inhibition
Cc1c(C(=O)O)c(O)cc2c1C(=O)c1c(O)c([C@H]3O[C@H](CO)[C@@H](O)[C@H](O)[C@H]3O)c(O)c(O)c1C2=O	inconclusive: 15.8 µM [inhibitor, partial curve, poor fit] and inconclusive: 17.8 µM [inhibitor, partial curve]	–
COc1ccc(COc2cc(-c3cccc(OC)c3)nc3ccc(N)cc23)cc1	inconclusive: 17.8 µM [activator, single point]	–
Cc1ccc(OCC(=O)NNC(=S)NC(=O)c2ccc(Br)o2)c(C)c1	inconclusive: 20 µM [inhibitor, single point]	–
Cc1nc2ccc(NC(=O)c3cc([N+](=O)[O-])cc([N+](=O)[O-])c3Cl)cc2s1	inconclusive: 4.47 µM [inhibitor, full curve, poor fit]	–
O=C1C2C(c3ccccc3)CC=CC2[C@H](c2ccoc2)N1Cc1ccccc1 (stereo not given in full)	inconclusive: 12.6 µM [activator, single point]	–
COCCCNC(=O)Cc1c(C)c2c(cc(C)c3c(C(C)(C)C)coc32)oc1=O	–	inactive: 25%
COc1ccc(N=Cc2nc(-c3ccccc3)oc2OC(C)=O)cc1	inconclusive: 14.1 µM [activator, single point]	–
Cc1ccsc1/C=C(\C#N)C(=O)Nc1c(C)n(C)n(-c2ccccc2)c1=O	–	inactive: -5.71%
COCCn1c(SCC(=O)N2CCCc3ccccc32)nnc1-c1ccoc1C	inconclusive: 2.24 µM [inhibitor, partial curve]	–
Cc1cccc(COCC(CC(C)C)N2CCN(C(=O)c3ccc(C(F)(F)F)cc3)CCC2=O)c1 (stereo not given)	inconclusive: 35.5 µM [activator, single point]	–
COc1ccccc1/C=N/NC(=O)c1ccccc1NS(=O)(=O)c1ccc(C)cc1	active: 12.6 µM	–
O=C(CSc1ccc(-c2ccco2)nn1)c1ccc(F)cc1	–	inactive: 38.6%
COc1ccccc1C1CCN(C(=S)Nc2ccc(Br)cc2)CC1	active: 5.01 µM	–
CC(=O)Nc1nc(C)c(-c2csc(Nc3ccc(S(N)(=O)=O)cc3)n2)s1	inconclusive: 5.62 µM [activator, single point]	–
CCS(=O)(=O)c1ccc2oc(SCC(=O)NCCC3=CCCCC3)nc2c1	inconclusive: 0.891 µM [activator, partial curve, poor fit]	–
O=C(Nc1ccc2c(c1)OCCO2)C1CCCN(c2ncccn2)C1 (stereo not given)	inconclusive: 22.4 µM [inhibitor, single point]	–
C#CCNC(=O)C1=C[C@@H](c2ccc(C(F)(F)F)cc2)[C@H](CCCO)[C@@H](OCC)O1	–	inactive: 34.7%
Cc1cccc(C(=O)NC(=S)N2CCN(c3ccc([N+](=O)[O-])cc3)CC2)c1	active: 0.447 µM	–
S=C(Nc1ccc(Cl)cc1)Nc1ccc2c(c1)OCCO2	inconclusive: 35.5 µM [inhibitor, single point]	–
CS(=O)(=O)N(CC(=O)N1CCCC1)c1ccc(Cl)cc1	–	inactive: 1.11%
CCOC(=O)N1CCN(C(=O)c2oc3ccc(S(=O)(=O)N4CC(C)CC(C)C4)cc3c2C)CC1 (stereo not given)	inconclusive: 11.2 µM [activator, partial curve]	–
C=CCn1c(C(C)NC(=O)c2ccccc2)n[nH]c1=S (stereo not given)	inconclusive: 28.2 µM [inhibitor, single point]	–
COc1cccc(CN2CCN(Cc3cccc4c3OCO4)CC2CCO)c1 (stereo not given)	active: 7.08 µM	–
CCCn1c(=O)n(C)c(=O)c2c(SCC(=O)NCc3ccco3)nc(C3CC3)nc21	inconclusive: 15.8 µM [inhibitor, single point]	–

SMILES	Potency	activity change, negative = inhibition
CC(=O)Nc1cc(C)nn1-c1nc(C)cc(C)n1	inconclusive: 22.4 µM [inhibitor, single point]	–
CN(C)S(=O)(=O)N1CCCC(C(=O)c2ccc(-c3ccccc3)c(F)c2)C1 (stereo not given)	inconclusive: 3.16 µM [inhibitor, single point]	–
CC(C)NC(=O)CSc1nc2ccccc2n1CC(=O)N(C(C)C)C(C)C	inconclusive: 17.8 µM [inhibitor, single point]	–
c1cnc(NCCNc2ncccn2)nc1	inconclusive: 1.58 µM [activator, partial curve]	–
CCOCCCN(Cc1ccco1)C(=O)c1cc2c(=O)[nH]c3ccc(C)cc3c2s1	–	inactive: 22.9%
CC1CCc2cc(F)ccc2N1C(=O)CSc1nnc2c(n1)[nH]c1ccccc12 (stereo not given)	inconclusive: 35.5 µM [activator, single point]	–
Cc1ccc(Nc2nnc(SCC3CCCCO3)s2)cc1 (stereo not given)	inconclusive: 0.005 µM [inhibitor, full curve, poor fit]	–
O=c1/c(=C/c2ccccn2)sc2n1CN(c1ccccc1)CN=2	inconclusive: 35.5 µM [inhibitor, single point]	–
COc1ccc(NC(=O)C#Cc2ccccc2)cc1OC	–	inactive: 1.8%
O=C(NCc1cccnc1)C1CC(c2ccccc2O)=NO1 (stereo not given)	inconclusive: 11.2 µM [inhibitor, partial curve, poor fit]	–
CC(C)(C)c1ccc(-n2ncc3c2CCCC3NC(=O)C2(C(N)=O)CC2)cc1 (stereo not given)	inconclusive: 11.2 µM [inhibitor, single point]	–
CCOC(=O)N1CCN(C(=O)CNC(=O)c2nn(-c3ccc(OC)cc3)c(=O)c3ccccc23)CC1	inconclusive: 12.6 µM [inhibitor, single point]	–
Cc1cc(C)nc(NS(=O)(=O)c2ccc(NC(=O)C3(c4ccc([N+](=O)[O-])cc4)CCCC3)cc2)n1	inconclusive: 12.6 µM [activator, single point]	–
COc1ccc(NC(=S)Nc2nc(CC(=O)Nc3ccccc3OC)cs2)cc1	active: 1.78 µM	–
c1ccc(-c2cnc(-c3ccccc3)nc2)cc1	inconclusive: 0.0891 µM [activator, full curve]	–
Cc1cc(C)cc(N2CC(c3nc4ccccc4n3C)CC2=O)c1 (stereo not given)	inconclusive: 0.005 µM [activator, full curve, poor fit]	–
O=C(CCCn1c(SCC(=O)c2ccccc2)nc2ccccc2c1=O)NCC1CCCO1 (stereo not given)	inconclusive: 22.4 µM [activator, single point]	–
CCOC(=O)C(=CNc1cc(C)ccc1C)C(=O)OCC	–	inactive: -22.5%
Cc1ccc(O)c(C(=O)c2cnc3c(c2)COc2ccccc2-3)c1	inconclusive: 15.8 µM [activator, single point]	–
CCn1c(COc2ccc3c(c2)OCO3)nnc1SCC(=O)O	inconclusive: 35.5 µM [activator, single point]	–
OC1(C(F)(F)F)CC(O)(C(F)(F)F)n2nc(-c3ccccc3)cc2N1 (stereo not given)	inconclusive: 3.98 µM [inhibitor, partial curve, poor fit]	–
O=C(CC12CC3CC(CC(C3)C1)C2)NC(=S)N1CCCCC1	active: 4.47 µM	–
CCOc1ccc(CNC(=O)CCn2c(=O)oc3ccccc32)cc1	–	inactive: 0.372%
COc1ccc(C2N(c3cc(Cl)ccc3OC)C(=O)C3CCCN32)cc1 (stereo not given)	–	inactive: -5.08%

SMILES	Potency	activity change, negative = inhibition
CC(=O)NCCc1ccc(S(=O)(=O)Nc2ccc(C)c(S(=O)(=O)N3CCOCC3)c2)cc1	–	inactive: -14.7%
O=C(NCCc1nc(-c2ccccc2)cs1)c1ccc(Br)cc1	inconclusive: 35.5 µM [activator, single point]	–
C=CCNC(=O)/C(C#N)=C/c1ccc(OS(=O)(=O)c2ccc(C)cc2)c(OC)c1	active: 11.2 µM	–
COc1cccc(CNc2ccc(C)c(Cl)c2)c1	–	inactive: 19.1%
COc1ccc(N2C(=O)CCC(C(=O)N3CCN(c4ccccn4)CC3)C2c2ccc(F)cc2)cc1 (stereo not given)	–	inactive: -5.96%
Cc1ccc(C2CCN(C(=O)Nc3ccc(F)cc3)C2)cc1 (stereo not given)	inconclusive: 2 µM [activator, full curve]	–
O=C(NCc1ccccc1)/C(=C/c1ccc(OC(F)F)cc1)c1ccccc1	inconclusive: 15.8 µM [activator, single point]	–
Cc1ccccc1NNC(N)=S	inconclusive: 17.8 µM [inhibitor, single point]	–
Cc1nc(N2CCOCC2)c2c(C)c(C(=O)Nc3ccc(C(F)(F)F)cc3)sc2n1	inconclusive: 7.94 µM [inhibitor, single point]	–
Cc1ccc(CN=C2Nc3ccccc3CS2)cc1	inconclusive: 15.8 µM [inhibitor, single point]	–
CSc1ccc(/C=N/n2c(C)cc(C)cc2=O)cc1	inconclusive: 3.55 µM [activator, partial curve]	–
COc1ccc2nc(-c3ccccc3)[nH]c2c1	–	inactive: 13.7%
Cc1cccnc1CN1CCN(Cc2nc(Cc3cccc(F)c3)no2)CC1	active: 12.6 µM	–
Cc1cc(Br)ccc1NC(=S)N1CCOCC1	active: 12.6 µM	–
O=C1CC(N2CCN(c3ccccc3)CC2)C(=O)N1c1ccc2c(c1)OCCO2 (stereo not given)	–	inactive: 28%
COc1cc(-c2nnc(-c3ccccc3)o2)cc(OC)c1OC	inconclusive: 2.51 µM [activator, full curve, poor fit]	–
CCOc1ccc(Nc2nc3c(C)cccc3cc2C#N)cc1	inconclusive: 15.8 µM [inhibitor, single point]	–
O=C(NC(=S)Nc1ccccn1)c1cccc([N+](=O)[O-])c1	active: 3.55 µM	–
COc1ccc(N2C(=O)CC(Sc3ncn[nH]3)C2=O)c(OC)c1 (stereo not given)	active: 3.16 µM	–
Cc1cc(-c2c(C)[nH]n(-c3ccccc3)c2=O)n(-c2ccccc2)n1	–	inactive: -36.9%
CCCSCCCNC(=O)Cn1cc2c(n1)CCCCC2	inconclusive: 5.62 µM [activator, partial curve]	–
C=CCn1c(SCC(=O)Nc2nc3ccccc3s2)nc(O)c(CC)c1=O	–	inactive: 37.2%
